{"source": "patent US20260002931A1", "about": "“CULTURED CELL SHEET AND METHOD FOR PRODUCING SAME; METHOD FOR EVALUATING COMPOUND OR DRUG; AND METHOD FOR EVALUATING QUALITY OF CULTURED CELL SHEET” (OJI HOLDINGS CORPORATION, priority 2022, published 2026)", "key": {"[1]": {"tested_on": "iCell cardiomyocyte CM2 (human iPS cell-derived cardiomyocytes)", "assay": "Drug safety test-1: motion test method using live cell imaging device (SI8000)", "type": "cell-based", "conditions": "for incidence of arrhythmia: wells of 6; for wells in which arrhythmia occurred: over all doses 0.1-1 μM", "protocol": "(§1) The drug was dissolved in DMSO and cumulatively administered. First, the measurement as dose0 was performed without adding drugs. […] Subsequently, immediately after the measurement, the drug was added to the same well, respectively so that the concentration was dose2, and the measurement was performed after 15 minutes. The same was done for dose3.\n(§2) For the cell responsiveness after the drug administration, an arrhythmia measurement method by Ca-imaging using a confocal imaging device (CQ1, manufactured by Yokogawa Electric Corporation) and a motion test method using a live cell imaging device (SI8000, manufactured by Sony Corporation) were performed to investigate the effect on the beating rate and the line width of the beating peak.\nCM2 on day 5 of maintenance culture was used, and video data was first obtained as Dose0 using SI8000 (manufactured by Sony Corporation) without adding drugs. Immediately after the measurement, each drug at the concentration of dose1 was added to the same well plate, and video data was obtained after 15 minutes. For Dose2 and Dose3, the drug was cumulatively administered in the same manner, and video data was obtained. The addition test of each drug was performed at n=6.\nThe beating rate (BR), the contractile velocity (CV), the relaxation velocity (RV), and the contraction-relaxation duration (CRD) were analyzed from the video data of S18000, and the effects of the drugs on the motion of the cells were compared. The contraction-relaxation duration (CRD) was corrected by the following equation with reference to the equation of Frederica to correct variation due to the beating rate (BR).\nFor the side effects seen from the change in the parameters of SI8000, early after depolarization (EAD) and delayed after depolarization (DAD), small regular waveforms (VT-like), and reaction (waveform) disappearance were recorded. Changes in waveforms not classified into EAD or DAD were described as arrhythmia. The “-” in the table indicates the state in which no arrhythmia or the like has occurred.\nThe degree of arrhythmia is mild for EAD, moderate for DAD, and severe for vt-like."}, "[2]": {"tested_on": "iCell cardiomyocyte CM2 (human iPS cell-derived cardiomyocytes)", "assay": "Drug safety test-1: arrhythmia measurement by Ca-imaging (CQ1)", "type": "cell-based", "conditions": "wells of 6; for incidence of moderate to severe arrhythmia (DAD, VT-like): aligned plate; for incidence of moderate to severe arrhythmia: planar plate", "protocol": "as §1, §2\nTo CM2 on day 6 of maintenance culture, a fluorescent Ca indicator (EarlyTox carditotoxicity kit, manufactured by Molecular Devices, LLC.) was added, and living cells were stained. First, the change in Ca fluorescence intensity associated with the contraction of cardiomyocytes was measured as Dose0 in CQ1 without adding drugs. Immediately after the measurement, each drug at the concentration of Dose1 was added to the same well plate, and the change in Ca fluorescence intensity was measured after 15 minutes. For Dose2 and Dose3, the drug was cumulatively administered in the same manner, and the change in Ca fluorescence intensity was measured. The addition test of each drug was performed at n=6.\nThe significant difference test was performed between the subject group in which DMSO was added and the drug addition group in CM2 cultured in the planar plate and CM2 cultured the aligned plate.\nFor the side effects seen from the waveform changes of Ca transient, early after depolarization (EAD) and delayed after depolarization (DAD), small regular waveforms (VT-like), and reaction (waveform) disappearance were recorded. The“−” in the table indicates the state in which no arrhythmia or the like has occurred. The degree of arrhythmia is mild for EAD, moderate for DAD, and severe for vt-like."}}}
{"molecule": "Cc1cccc(CCN2CCC(C(=O)c3ccc(NS(C)(=O)=O)cc3)CC2)n1", "note": "[E-4031]", "values": [{"measurement": "incidence of arrhythmia", "setting": "[1]; aligned plate, high concentration (Dose3, 1 μM)", "value": "1/6"}, {"measurement": "incidence of arrhythmia", "setting": "[1]; aligned plate, low concentration (Dose1, 0.1 μM)", "value": "1/6"}, {"measurement": "incidence of arrhythmia", "setting": "[1]; aligned plate, medium concentration (Dose2, 0.3 μM)", "value": "1/6"}, {"measurement": "wells in which arrhythmia occurred", "setting": "[1]; aligned plate", "value": "1 of 6"}, {"measurement": "incidence of arrhythmia", "setting": "[1]; planar plate, high concentration (Dose3, 1 μM)", "value": "6/6"}, {"measurement": "incidence of arrhythmia", "setting": "[1]; planar plate, low concentration (Dose1, 0.1 μM)", "value": "3/6"}, {"measurement": "incidence of arrhythmia", "setting": "[1]; planar plate, medium concentration (Dose2, 0.3 μM)", "value": "5/6"}, {"measurement": "wells in which arrhythmia occurred", "setting": "[1]; planar plate", "value": "6 of 6"}, {"measurement": "incidence of moderate to severe arrhythmia (DAD, VT-like)", "setting": "[2]; E-4031 Dose1, 0.1 μM", "value": "0/6"}, {"measurement": "incidence of moderate to severe arrhythmia (DAD, VT-like)", "setting": "[2]; E-4031 Dose2, 0.3 μM", "value": "1/6"}, {"measurement": "incidence of moderate to severe arrhythmia (DAD, VT-like)", "setting": "[2]; E-4031 Dose3, 1 μM", "value": "4/6"}, {"measurement": "incidence of moderate to severe arrhythmia", "setting": "[2]; E-4031 Dose1, 0.1 μM", "value": "3/6"}, {"measurement": "incidence of moderate to severe arrhythmia", "setting": "[2]; E-4031 Dose2, 0.3 μM", "value": "6/6"}, {"measurement": "incidence of moderate to severe arrhythmia", "setting": "[2]; E-4031 Dose3, 1 μM", "value": "6/6"}]}
